Experimental data reported in PubChem BioAssay AID2012 (Sanford-Burnham Center for Chemical Genomics, 2009).
This is one part of the list.

These molecules were tested against Eukaryotic translation initiation factor 4H (Homo sapiens) (UniProt Q15056) (assay: human eIF4H binding inhibitors, primary screen, translation initiation inhibitor project, biochemical, uHTS, fluorescence polarization (AID 2012)). Conditions: eIF4H fluorescence polarization binding assay; confirmation average; at 20 µM; stronger effect = higher value.

Row | Compound | inhibition [%]
1 | CCCN1CCC(Nc2cc(OC)cc(OC)c2)CC1 | 35.5
